# Hit rate of the full screen: of about 400,000 compounds, about 13,000 (3.2%) were called active. The shares of active, inactive and inconclusive entries below differ from those in the screen. Calls come from the whole dose curve; as a rule, active = well fitted cell-killing curve with a large enough effect; inconclusive = small, poorly fitted or top-dose-only effect, or effect the other way; inactive = flat fitted curve, though single readings scatter. Where the call is inconclusive, the potency comes from a doubtful curve fit.
# Assay: qHTS assay for MDR1-selective chemotherapeutics: Primary screen using the drug-selected MDR subline cells KB-V1; note: nearly all actives have a fitted effect of over 60% in size
# Conditions: KB-V1 MDR cells viability, CellTiter-Glo, 72 h; activity change, negative = cytotoxicity: at 46.1 µM (top of the series)
# Outline: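 qHTS viability screen in drug-selected KB-V1 MDR cells: 72 h compound treatment at 37 degrees C, ATP luminescence end point.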
# % is set by controls: 0 for no effect and ±100 for the full control effect; potency is the fitted concentration of half-maximal effect.
SMILES,Potency,"activity change, negative = cytotoxicity"
Cc1cc([N+](=O)[O-])ccc1-c1ccc(C2Nc3ccccc3C(=O)N2O)o1 (centres undefined),inactive,–
O=C(NCCc1ccc(Cl)cc1)c1cc2ccccn2n1,"inconclusive: 18.4 µM [cytotoxic, single point]",–
Cc1ccc(C)c(NC(=O)CCN2CCN(CCO)CC2)c1,"inconclusive: 32.6 µM [rising, single point]",–
COc1cccc(C(=O)Nc2nnc(-c3ccc(F)cc3)o2)c1,"inconclusive: 16.4 µM [cytotoxic, partial curve, poor fit]",–
Cc1ccc(S(=O)(=O)N2CCC(C(=O)Nc3ccccc3N3CCCCC3)CC2)cc1C,"inconclusive: 5.8 µM [cytotoxic, full curve]",–
CC(C)c1csc(CN2CCC(N3CCC(C(=O)N4CCOCC4)CC3)CC2)n1,"inconclusive: 4.11 µM [rising, partial curve, poor fit]",–
COc1ccc(C2=Nc3ccccc3N(C(=O)c3ccncc3)C2C(=O)NC(C)C)cc1 (centres undefined),"inconclusive: 11.6 µM [cytotoxic, partial curve, poor fit]",–
COc1ccc(NC(=O)c2ccco2)cc1NC(=O)c1ccc(C)cc1,"inconclusive: 5.17 µM [cytotoxic, partial curve]",–
CCc1c(O)nc(SCc2ccc(F)cc2)[nH]c1=O,"inconclusive: 13 µM [rising, partial curve, poor fit]",–
c1cnc2c(SCc3ccc(-c4nnco4)cc3)cccc2c1,active: 14.6 µM,–
CC(C)C[C@@H](C(=O)NC1CCN(Cc2ccccc2)CC1)N1C(=O)N2CCc3c([nH]c4ccccc34)[C@@]2(C)C1=O,"inconclusive: 29.1 µM [cytotoxic, single point]",–
CC(C)(C)C(=O)CN1C(=O)NC2(CCOc3ccccc32)C1=O (centres undefined),inactive,–
Cc1ccccc1OCc1nnc(SCC(=O)Nc2ccc(N3CCOCC3)c(Cl)c2)n1C,"inconclusive: 10.3 µM [cytotoxic, partial curve]",–
Cc1nc(CSc2nnc3scc(-c4ccc(Cl)cc4)n23)cs1,"inconclusive: 11.6 µM [cytotoxic, partial curve]",–
COc1ccccc1NC(=O)c1ccccc1N(Cc1ccccc1)S(C)(=O)=O,inactive,–
CCOCCn1c(=NC(=O)c2ccc(S(=O)(=O)N3CCOCC3)cc2)sc2cc(S(N)(=O)=O)ccc21,"inconclusive: 18.4 µM [rising, single point]",–
Cc1cccc(OCc2n[nH]c(=S)o2)c1,–,inconclusive: -55.3%
O=C1C=C(c2ccccc2)C[C@H](c2cccs2)[C@H]1n1nnc([N+](=O)[O-])n1,active: 16.4 µM,–
Cc1ccc(C)c(CSc2nc3[nH]ncc3c(=O)[nH]2)c1,active: 0.517 µM,–
Cc1ccc(CNC(=O)C2(c3cccs3)CCOCC2)cc1,"inconclusive: 14.6 µM [cytotoxic, partial curve]",–
Cn1c(=O)n(C)c2cc(/C=N/NC(N)=S)ccc21,"inconclusive: 10.3 µM [cytotoxic, partial curve, poor fit]",–
COc1cccc(C(=O)Nc2c[nH]c(=O)[nH]c2=O)c1,"inconclusive: 18.4 µM [cytotoxic, single point]",–

SMILES,Potency,"activity change, negative = cytotoxicity"
Cc1cc2cc3c(cc2nc1SCC(=O)N1CCCC1)OCCO3,"inconclusive: 4.61 µM [cytotoxic, partial curve]",–
COc1ccc(CN(Cc2ccc(OC)cc2)S(=O)(=O)c2ccc(-n3cnnn3)c(C)c2)cc1,"inconclusive: 18.4 µM [cytotoxic, partial curve, poor fit]",–
CCOC(=O)C1CCCN(C(=O)c2cc(S(=O)(=O)N3CCCCC3)ccc2Cl)C1 (centres undefined),inactive,–
CC(C)(C)NC(=O)c1ccc2c(c1)N(CC(=O)N1CCCC1)C(=O)C(C)(C)O2,"inconclusive: 23.1 µM [cytotoxic, partial curve, poor fit]",–
COc1ccc(NC(=O)Cc2ccc(-c3ccccc3)cc2)cn1,active: 13 µM,–
c1ccc(Nc2ccccc2Nc2ccccn2)nc1,"inconclusive: 16.4 µM [cytotoxic, single point]",–
COc1ccc(/C=C2\SC(=O)N(CCNC(=O)C3CSC4(C)CCC(=O)N34)C2=O)cc1 (centres undefined),inactive,–
O=C(c1ccc(Cl)cc1)c1c[nH]c(C(=O)C(Cl)(Cl)Cl)c1,"inconclusive: 29.1 µM [cytotoxic, single point]",–
CCOC(=O)c1cccc(NC(=S)NC(=O)c2cccnc2)c1,inactive,–
O=C(O)COc1ccccc1/C=N/NC(=O)C(O)c1ccccc1 (centres undefined),"inconclusive: 16.4 µM [rising, single point]",–
CN(C)CC1CCC/C(=C\c2ccc(OC(=O)c3ccc(Cl)cc3)cc2)C1=O (centres undefined),active: 20.6 µM,–
CC(C)NS(=O)(=O)c1ccc(OCC(=O)N2CCCC2)cc1,inactive,–
Cc1cc(Cl)ccc1NC(=O)CN1CCC(C(O)(c2ccccc2)c2ccccc2)CC1,"inconclusive: 18.4 µM [cytotoxic, single point]",–
COc1ccc(OCCn2c(N)nc3ccccc32)cc1,"inconclusive: 18.4 µM [cytotoxic, partial curve]",–
CCc1nn(C(CC)C(=O)NCC(C)c2ccccc2)c(=O)c2cc3occc3n12 (centres undefined),inactive,–
CCOc1ccc(NC(=O)CSc2ncnc3c2sc2ccccc23)cc1,"inconclusive: 16.4 µM [cytotoxic, partial curve, poor fit]",–
COCCNC(=O)C1(C)CCCN(Cc2ccc(OC)cc2)C1 (centres undefined),inactive,–
O=[N+]([O-])c1ccc(S(=O)(=O)N(CCCN2CCOCC2)Cc2cccs2)cc1,"inconclusive: 16.4 µM [cytotoxic, partial curve, poor fit]",–
Cc1csc(NC(=O)CCCc2cccs2)n1,"inconclusive: 32.6 µM [cytotoxic, single point]",–
O=S(=O)(c1ccccc1)N1CCN(C(=S)NCc2ccccc2)CC1,"inconclusive: 16.4 µM [cytotoxic, single point]",–
COc1ccc(S(=O)(=O)N2CCN(C)CC2)cc1C(=O)Nc1ccccc1,–,inconclusive: -2.22%
O=C(CCC(=O)c1cccs1)NCc1cccc(C(F)(F)F)c1,"inconclusive: 6.51 µM [rising, partial curve, poor fit]",–

# Part of the list above in order of length of the SMILES, rising.
SMILES,Potency,"activity change, negative = cytotoxicity"
Cc1csc(NC(=O)CCCc2cccs2)n1,"inconclusive: 32.6 µM [cytotoxic, single point]",–
c1ccc(Nc2ccccc2Nc2ccccn2)nc1,"inconclusive: 16.4 µM [cytotoxic, single point]",–
COc1ccc(S(=O)(=O)N2CCN(C)CC2)cc1C(=O)Nc1ccccc1,–,inconclusive: -2.22%
